# Source: patent US6576261B1, “Potentiation of inclusion complex formation of cyclodextrin derivatives” (priority 1999, dated 2003)
# Some entries share one result that the patent states for a list of compounds. At least one compound was matched to its structure with a doubt left.
# Test: Solubility of TRIMEA and DIMEB and complex formation between the two hosts in absence of a guest
# Type: physicochemical
# Procedure: TRIMEA and DIMEB dissolve in water more than 33 g per 100 ml of water. The solubilities of both these compounds in water can be decreased by the addition of salts or by an increase of temperature. Thus, in aqueous solution of sodium sulfate (1 M), TRIMEA dissolved to the saturation concentration just of 0.4 mg/ml and DIMEB to 3.4 mg/ml. […] If a 1:1 complex between TRIMEA and DIMEB is assumed to form, the association constant of 700 [1/M] can be estimated for that complex, which is of the same order of magnitude as association constants of many complexes formed of guests and cyclodextrins.
row,SMILES,dissolve in water
1,COC[C@H]1O[C@@H]2O[C@@H]3[C@@H](OC)[C@@H](OC)[C@@H](O[C@@H]4[C@@H](OC)[C@@H](OC)[C@@H](O[C@@H]5[C@@H](OC)[C@@H](OC)[C@@H](O[C@@H]6[C@@H](OC)[C@@H](OC)[C@@H](O[C@@H]7[C@@H](OC)[C@@H](OC)[C@@H](O[C@@H]1[C@@H](OC)[C@H]2OC)O[C@@H]7COC)O[C@@H]6COC)O[C@@H]5COC)O[C@@H]4COC)O[C@@H]3COC [TRIMEA],more than 33 g per 100 ml of water
2,COC[C@H]1O[C@@H]2O[C@H]3[C@H](O)[C@@H](OC)[C@@H](O[C@H]4[C@H](O)[C@@H](OC)[C@@H](O[C@H]5[C@H](O)[C@@H](OC)[C@@H](O[C@H]6[C@H](O)[C@@H](OC)[C@@H](O[C@H]7[C@H](O)[C@@H](OC)[C@@H](O[C@H]8[C@H](O)[C@@H](OC)[C@@H](O[C@H]1[C@H](O)[C@H]2OC)O[C@@H]8COC)O[C@@H]7COC)O[C@@H]6COC)O[C@@H]5COC)O[C@@H]4COC)O[C@@H]3COC [DIMEB],more than 33 g per 100 ml of water
